# Source: the supplement of paper PMC8728848
# Some of the results follow.
# B1: Awp1 (Candida glabrata) (protein)
# chain: MSLITIFAFLIKATLVLSLDILTPTTLTGDQTFNEDVSVVSSLTLNDGSQYLFNNLLQIAPSSASVTANALAAVSVFTFSLPPSSSLSNSGTLIISNSNTGPSTEQHIVITPNVMANTGTITLSLAHTNTDSSSTLIIDPVTFYNTGTINYESIGSETNDPSLTGNILSIGSSGRTLQNLGTINLNAANSYYLLGTITENSGSINVQKGFLYVNALDFIGNTINLSTTTALAFISPVSQVVRVRGVFFGNIIASVGSSGTFSYNTQTGILTVTTNGVYSYDIGCGYNPALMSGQQETLSFQGNPYDTFLVLVNQPIPSDLTCAAVSSSITPSSSVEPSSSVVPSSSVEPSSSVEPSSSVEPSSSVEPSSSVEPSSSVEPSSSVEPSSSVEPSSSVEPSSSVEPSSSVEPSSSVEPSSSVEPSSSVEPSSSVEPSSSVEPSSSVEPSSSVEPSSSVEPSSLIVPSSSVEPSSSVLPSSSVVPSSSVEPSTPPIPSSSVEPSSSVVPSSPAVPSSSVEPSTPPIPSSSVVSASVFDTSSTLPSSPSVPPSSVSPSTISTPSSSAAPSSFCPTCVSSGTPPAPSSSAIVPTSSAGGGNGGDNREPGAAGQPGAAGQPGAAGQPGAAGQPGAAGQPGAAGQPGAAGQPGAAGQPGAAGQPGAAGQPGAGFGVGSEQPTPGAGAGSGSADGNQSGTGSGTGNGQQGSGQAGSGQAGSGQEGSGQAGSGQAGSGQAGSGQAGSGQAGLDNTASGQSEGGQASAMDGDQSGRDGQSNSGSLLQPNAQQGTGSGTGSDIGADQASGESPGQIGDAQPGSGTDQSSGRHSLAAEARTSQSHSLAADARTRSTTRQTSVIAPDTAPGTASGTAPGTAPGTAVVTTFHGCGTVNHKGMINILLALALLVLL
# Columns and labels:
# Assay in all cases: glycan array binding signal (z-score within array); higher = stronger binding
# Settings in all cases: glycan notation: IUPAC condensed, linker removed
# [1] = target: Neu5Ac(a2-6)GlcNAc(b1-4)GlcNAc(b1-4)GlcNAc
# Summary of the method: (§1)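 Arrays were curated from the Consortium for Functional Glycomics database, 3228 in total, and kept only where the protein sequence was available. Binding is expressed as a within-array Z-score. This score was averaged across arrays of the same protein sequence at different concentrations or buffers and across linkers, and negative values can be read as non-binding.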
# Neu5Ac(a2-8)Neu5Ac = target: Neu5Ac(a2-8)Neu5Ac
# Summary of the method: as §1
# [2] = target: Neu5Ac(a2-8)Neu5Ac(a2-3)Gal(b1-3)GalNAc(b1-4)[Neu5Ac(a2-3)]Gal(b1-4)Glc
# Summary of the method: as §1
# [3] = target: Neu5Ac(a2-8)Neu5Ac(a2-3)Gal(b1-3)GalNAc(b1-4)[Neu5Ac(a2-8)Neu5Ac(a2-3)]Gal(b1-4)Glc
# Summary of the method: as §1
# [4] = target: Neu5Ac(a2-8)Neu5Ac(a2-3)Gal(b1-4)Glc
# Summary of the method: as §1
# [5] = target: Neu5Ac(a2-8)Neu5Ac(a2-3)Gal(b1-4)GlcNAc
# Summary of the method: as §1
# [6] = target: Neu5Ac(a2-8)Neu5Ac(a2-3)[Gal(b1-3)GalNAc(b1-4)]Gal(b1-4)Glc
# Summary of the method: as §1
# [7] = target: Neu5Ac(a2-8)Neu5Ac(a2-3)[GalNAc(b1-4)]Gal(b1-4)Glc
# Summary of the method: as §1
# [8] = target: Neu5Ac(a2-8)Neu5Ac(a2-8)Neu5Ac
# Summary of the method: as §1
# [9] = target: Neu5Ac(a2-8)Neu5Ac(a2-8)Neu5Ac(a2-3)Gal(b1-4)Glc
# Summary of the method: as §1
# [10] = target: Neu5Ac(a2-8)Neu5Ac(a2-8)Neu5Ac(a2-3)[Gal(b1-3)GalNAc(b1-4)]Gal(b1-4)Glc
# Summary of the method: as §1
# [11] = target: Neu5Ac(a2-8)Neu5Ac(a2-8)Neu5Ac(a2-3)[GalNAc(b1-4)]Gal(b1-4)Glc
# Summary of the method: as §1
# [12] = target: Neu5Ac(a2-8)Neu5Ac(a2-8)Neu5Ac(a2-8)Neu5Ac(a2-3)[GalNAc(b1-4)]Gal(b1-4)Glc
# Summary of the method: as §1
# [13] = target: Neu5Ac(a2-8)Neu5Gc(a2-3)Gal(b1-4)GlcNAc
# Summary of the method: as §1
# [14] = target: Neu5Ac(b2-6)Gal(b1-4)GlcNAc
# Summary of the method: as §1
# Neu5Ac(b2-6)GalNAc = target: Neu5Ac(b2-6)GalNAc
# Summary of the method: as §1
# [15] = target: Neu5Ac9Ac(a2-3)Gal(b1-3)GlcNAc
# Summary of the method: as §1
# [16] = target: Neu5Ac9Ac(a2-3)Gal(b1-4)GlcNAc
# Summary of the method: as §1
# [17] = target: Neu5Ac9Ac(a2-6)Gal(b1-4)GlcNAc
# Summary of the method: as §1
# [18] = target: Neu5Gc(a2-3)Gal(b1-3)GlcNAc
# Summary of the method: as §1
# [19] = target: Neu5Gc(a2-3)Gal(b1-3)[Fuc(a1-4)]GlcNAc
# Summary of the method: as §1
# Neu5Gc(a2-3)Gal(b1-4)Glc = target: Neu5Gc(a2-3)Gal(b1-4)Glc
# Summary of the method: as §1
# [20] = target: Neu5Gc(a2-3)Gal(b1-4)GlcNAc
# Summary of the method: as §1
# [21] = target: Neu5Gc(a2-3)Gal(b1-4)GlcNAc(b1-3)Gal(b1-4)GlcNAc(b1-2)Man(a1-3)[Neu5Gc(a2-3)Gal(b1-4)GlcNAc(b1-3)Gal(b1-4)GlcNAc(b1-2)Man(a1-6)]Man(b1-4)GlcNAc(b1-4)GlcNAc
# Summary of the method: as §1
# [22] = target: Neu5Gc(a2-3)Gal(b1-4)[Fuc(a1-3)]GlcNAc
# Summary of the method: as §1
# [23] = target: Neu5Gc(a2-6)Gal(b1-4)GlcNAc
# Summary of the method: as §1
# Neu5Gc(a2-6)GalNAc = target: Neu5Gc(a2-6)GalNAc
# Summary of the method: as §1
# [24] = target: Neu5Gc(a2-8)Neu5Ac(a2-3)Gal(b1-4)GlcNAc
# Summary of the method: as §1
# [25] = target: Neu5Gc(a2-8)Neu5Gc(a2-3)Gal(b1-4)GlcNAc
# Summary of the method: as §1
# [26] = target: Neu5Gc(a2-8)Neu5Gc(a2-3)Gal(b1-4)GlcNAc(b1-3)Gal(b1-4)GlcNAc
# Summary of the method: as §1
binder,measurement,setting,value
B1,glycan array binding signal (z-score),[1],-1.04
same,glycan array binding signal (z-score),Neu5Ac(a2-8)Neu5Ac,-1.66
same,glycan array binding signal (z-score),[2],1.39
same,glycan array binding signal (z-score),[3],0.954
same,glycan array binding signal (z-score),[4],0.225
same,glycan array binding signal (z-score),[5],-0.772
same,glycan array binding signal (z-score),[6],1.4
same,glycan array binding signal (z-score),[7],0.458
same,glycan array binding signal (z-score),[8],0.396
same,glycan array binding signal (z-score),[9],0.964
same,glycan array binding signal (z-score),[10],-0.734
same,glycan array binding signal (z-score),[11],0.706
same,glycan array binding signal (z-score),[12],-1.71
same,glycan array binding signal (z-score),[13],-0.628
same,glycan array binding signal (z-score),[14],0.599
same,glycan array binding signal (z-score),Neu5Ac(b2-6)GalNAc,-0.475
same,glycan array binding signal (z-score),[15],-0.768
same,glycan array binding signal (z-score),[16],-0.636
same,glycan array binding signal (z-score),[17],0.53
same,glycan array binding signal (z-score),[18],-1.5
same,glycan array binding signal (z-score),[19],-0.121
same,glycan array binding signal (z-score),Neu5Gc(a2-3)Gal(b1-4)Glc,0.53
same,glycan array binding signal (z-score),[20],0.095
same,glycan array binding signal (z-score),[21],0.265
same,glycan array binding signal (z-score),[22],0.366
same,glycan array binding signal (z-score),[23],0.302
same,glycan array binding signal (z-score),Neu5Gc(a2-6)GalNAc,-0.217
same,glycan array binding signal (z-score),[24],0.588
same,glycan array binding signal (z-score),[25],-1.68
same,glycan array binding signal (z-score),[26],-1.79

# Part of the list above, tab-delimited:
binder	measurement	setting	value
B1	glycan array binding signal (z-score)	[16]	-0.636
same	glycan array binding signal (z-score)	[17]	0.53
